PubChem BioAssay AID686937 – Drosophila RNAi Screening Center | 2013
Assay: 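Genes in the fly needed for secretion of protein constitutively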 (primary screen). Cells: Drosophila S2 cells expressing secreted horseradish peroxidase. Reagents: long dsRNA against Drosophila genes. Timing: about 5.5 days (5 days dsRNA, then 12 h reporter induction). Conditions: reporter expression induced after 5 days of dsRNA, read 12 h later; inducer not stated. Read-out: 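After 5 days of dsRNA and 12 h of reporter induction, medium peroxidase read by chemiluminescence and scored as per-plate z-score; higher values mean more reporter released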. Reading the numbers: z-score: higher = more reporter secreted into medium.
The deposit covers about 23,000 reagents; below is an unselected part of those that have a named target and a result. 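Reduced-secretion tags in replicate 1 do not always agree with the z-scores; no criterion for assigning the tags was given.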 Reagents against one gene are numbered here. Further read-outs or replicates are left out here. No sequences are given here. Not given: the amount of reagent.

How did the screen score mRpL51 (mitochondrial ribosomal protein L51)?
z-score, replicate 1: -0.11

With prt (portabella), how do the results read?
z-score, replicate 1: 0.68

With Klp59D (Kinesin-like protein at 59D), how do the results read?
z-score, replicate 1: 0.26

What is on record for al (aristaless)?
z-score, replicate 1: 0.18

Which result is listed for bt (bent) #1?
z-score, replicate 1: 0.27

For bt (bent) #2, how do the results read?
z-score, replicate 1: 0.13

Which result is listed for CrebB (Cyclic-AMP response element binding protein B)?
z-score, replicate 1: 0.57

Which result is listed for Sin3A?
z-score, replicate 1: -1.91

With RNF220 (ring finger protein 220), what was measured?
z-score, replicate 1: 0.08

How did the screen score CG5946?
z-score, replicate 1: 0.17

What is on record for CG5861?
z-score, replicate 1: -0.1

For tea (telomere ends associated) #1, what was measured?
z-score, replicate 1: 0.2

For tea (telomere ends associated) #2, how do the results read?
z-score, replicate 1: 0.03

For dsh (dishevelled), how do the results read?
z-score, replicate 1: 0.33

What did the screen give for Pfrx (6-phosphofructo-2-kinase) #1?
z-score, replicate 1: 0.54

What is on record for Pfrx (6-phosphofructo-2-kinase) #2?
z-score, replicate 1: 0.09

What did the screen give for CG3107?
z-score, replicate 1: 0.32

With CG15459 #1, how do the results read?
z-score, replicate 1: 0.49

What did the screen give for CG15459 #2?
z-score, replicate 1: 0.5

For CG14126 (retired record), what was measured?
z-score, replicate 1: 0.19

For Graf (GTPase regulator associated with FAK), how do the results read?
z-score, replicate 1: 0.25

With CG34376 #1, what does the deposit list?
z-score, replicate 1: 0

With CG34376 #2, how do the results read?
z-score, replicate 1: 0.01

For CG34376 #3, what was measured?
z-score, replicate 1: -0.28

With CG32814, how do the results read?
z-score, replicate 1: 0.4

Which result is listed for firl (firelighter)?
z-score, replicate 1: 0.01

How did the screen score Moe (Moesin)?
z-score, replicate 1: 0.36

For CG3348, what does the deposit list?
z-score, replicate 1: 0.28

What did the screen give for CG2004?
z-score, replicate 1: 0.29

What is on record for kek5 (kekkon 5)?
z-score, replicate 1: 0.43

What did the screen give for CAH14 (Carbonic anhydrase 14) #1?
z-score, replicate 1: 0.01

With CAH14 (Carbonic anhydrase 14) #2, how do the results read?
z-score, replicate 1: -0.07

Which result is listed for Hydr1 (alpha/beta hydrolase 1)?
z-score, replicate 1: 0.79

What did the screen give for FRG1 (FSHD region gene 1)?
z-score, replicate 1: 0.34

What is on record for CG12061?
z-score, replicate 1: -0.02

What did the screen give for CG30416?
z-score, replicate 1: 0.43

For Kal1 (Kallmann syndrome 1), how do the results read?
z-score, replicate 1: 0.2

For Nup62 (Nucleoporin 62kD), what was measured?
z-score, replicate 1: -1.02

For P5CDh1 (delta-1-Pyrroline-5-carboxylate dehydrogenase 1), what does the deposit list?
z-score, replicate 1: 0.49

What is on record for CG3611?
z-score, replicate 1: 0.16

Copied from the entries so far (2 entries):
al (aristaless) | z-score, replicate 1: 0.18
bt (bent) #1 | z-score, replicate 1: 0.27
